Data taken from US20250361231A1, “FUSED RING COMPOUNDS WITH SULFUR-CONTAINING SUBSTITUENTS, PREPARATION METHODS, INSECTICIDE COMPOSITIONS, AND APPLICATION” (priority 2022, published 2025).
Some of these results come from one statement about several compounds together.

Key:
Assay type in all cases: in vivo
Nilaparvata lugens = experiment: Activity against Nilaparvata lugens, sprayed leaf discs, adults; conditions: test rate 100 ppm; 6 days after incubation
Method: Cotton leaf discs were placed on agar in 24-well microtiter plates and sprayed with agueous test solutions prepared from 10,000 ppm DMSO stock solutions. After drying the leaf discs were infested with adult Nilaparvata lugens. The samples were checked for mortality 6 days after incubation.

Myzus persicae = experiment: Activity against Myzus persicae (green peach aphid), pea seedling roots in test solution; conditions: test rate 100 ppm; 6 days after placing seedlings into test solutions
Method: (§1) This test case is used to illustrate the insecticidal activity inhibition (%) of compounds with the structure shown in formula (I) (dosage of 100 ppm).
(§2) Roots of pea seedlings infested with an aphid population of mixed ages were placed directly into agueous test solutions prepared from […] stock solutions. The samples were assessed for mortality 6 days after placing seedlings into test solutions.

Aphis craccivora Koch = experiment: Activity against Aphis craccivora Koch, pea seedling roots in test solution; conditions: test rate 100 ppm; 6 days after placing seedlings into test solutions
Method: as §2

Leucania separate = experiment: Activity against Leucania separate, sprayed maize sprouts, L2 larvae; conditions: application rate 100 ppm; 4 days after infestation
Method: as §1
Maize sprouts placed onto an agar layer in 24-well microtiter plates were treated with agueous test solutions prepared from 10,000 ppm DMSO stock solutions by spraying. After drying, the plates were infested with L2 larvae (6 to 10 per well). The samples were assessed for mortality and growth inhibition in comparison to untreated samples 4 days after infestation.

Plutella xylostella = experiment: Activity against Plutella xylostella, artificial diet in 24-well plates, L2 larvae; conditions: application rate 100 ppm; 5 days after infestation
Method: (§3) 24-well microtiter plates with artificial diet were treated with agueous test solutions prepared from 10,000 ppm DMSO stock solutions by pipetting. After drying, the plates were infested with L2 larvae (10 to 15 per well). The samples were assessed for mortality and growth inhibition in comparison to untreated samples 5 days after infestation.

Laphygma exigua = experiment: Activity against Laphygma exigua, artificial diet in 24-well plates, L2 larvae; conditions: application rate 100 ppm; 5 days after infestation
Method: as §3

CCS(=O)(=O)c1cc2nc(C3(C#N)CC3)n(C)c2nc1-c1nc2cc(C(F)(F)F)cnc2n1C [Compound I-17]
at least 90%: mortality (Nilaparvata lugens) | mortality (Myzus persicae) | mortality (Aphis craccivora Koch) | effect in at least one of the two categories (mortality or growth inhibition) (Leucania separate) | effect in at least one of the two categories (mortality or growth inhibition) (Plutella xylostella) | effect in at least one of the two categories (mortality or growth inhibition) (Laphygma exigua)

CCCc1nc2cc(S(=O)(=O)CC)c(-c3nc4cc(C(F)(F)F)cnc4n3C)nc2n1C [Compound I-8]
at least 90%: mortality (Nilaparvata lugens) | mortality (Myzus persicae) | mortality (Aphis craccivora Koch) | effect in at least one of the two categories (mortality or growth inhibition) (Leucania separate) | effect in at least one of the two categories (mortality or growth inhibition) (Plutella xylostella) | effect in at least one of the two categories (mortality or growth inhibition) (Laphygma exigua)

CCS(=O)(=O)c1cc2nc(-c3ccc(F)cc3)sc2nc1-c1nc2cc(C(F)(F)F)cnc2n1C [Compound I-86]
at least 90%: mortality (Aphis craccivora Koch) | effect in at least one of the two categories (mortality or growth inhibition) (Laphygma exigua)

CCS(=O)(=O)c1cc2nc(C(F)F)n(C)c2nc1-c1nc2cc(C(F)(F)F)cnc2n1C [Compound I-16]
at least 90%: mortality (Nilaparvata lugens) | mortality (Myzus persicae) | mortality (Aphis craccivora Koch) | effect in at least one of the two categories (mortality or growth inhibition) (Leucania separate) | effect in at least one of the two categories (mortality or growth inhibition) (Plutella xylostella) | effect in at least one of the two categories (mortality or growth inhibition) (Laphygma exigua)

CCS(=O)(=O)c1cc2nc(C)n(C)c2nc1-c1nc2cc(C(F)(F)F)cnc2n1C [Compound I-2]
at least 90%: effect in at least one of the two categories (mortality or growth inhibition) (Laphygma exigua)

CCS(=O)(=O)c1cc2nc(-c3ccc(F)cc3F)n(C)c2nc1-c1nc2cc(C(F)(F)F)cnc2n1C [Compound I-5]
at least 90%: mortality (Nilaparvata lugens) | mortality (Myzus persicae) | mortality (Aphis craccivora Koch) | effect in at least one of the two categories (mortality or growth inhibition) (Leucania separate) | effect in at least one of the two categories (mortality or growth inhibition) (Plutella xylostella) | effect in at least one of the two categories (mortality or growth inhibition) (Laphygma exigua)

CCS(=O)(=O)c1cc2sc(C3CC3)nc2nc1-c1nc2cc(C(F)(F)F)cnc2n1C [Compound I-109]
at least 90%: effect in at least one of the two categories (mortality or growth inhibition) (Laphygma exigua)

CCS(=O)(=O)c1cc2nc(C3CC3)n(C)c2nc1-c1nc2cc(C(F)(F)F)cnc2n1C [Compound I-1]
at least 90%: effect in at least one of the two categories (mortality or growth inhibition) (Laphygma exigua)

CCS(=O)(=O)c1cc2nc(C(C)(C)C)n(C)c2nc1-c1nc2cc(C(F)(F)F)cnc2n1C [Compound I-9]
at least 90%: mortality (Nilaparvata lugens) | mortality (Myzus persicae) | mortality (Aphis craccivora Koch) | effect in at least one of the two categories (mortality or growth inhibition) (Leucania separate) | effect in at least one of the two categories (mortality or growth inhibition) (Plutella xylostella) | effect in at least one of the two categories (mortality or growth inhibition) (Laphygma exigua)

CCS(=O)(=O)c1cc2nc(C(C)C)n(C)c2nc1-c1nc2cc(C(F)(F)F)cnc2n1C [Compound I-7]
at least 90%: mortality (Nilaparvata lugens) | mortality (Myzus persicae) | mortality (Aphis craccivora Koch) | effect in at least one of the two categories (mortality or growth inhibition) (Leucania separate) | effect in at least one of the two categories (mortality or growth inhibition) (Plutella xylostella) | effect in at least one of the two categories (mortality or growth inhibition) (Laphygma exigua)

CCS(=O)(=O)c1cc2nc(C(F)(F)F)sc2nc1-c1nc2cc(C(F)(F)F)cnc2n1C [Compound I-100]
at least 90%: mortality (Nilaparvata lugens)

CCS(=O)(=O)c1cc2nc(-c3ccc(F)cc3)n(C)c2nc1-c1nc2cc(C(F)(F)F)cnc2n1C [Compound I-14]
at least 90%: mortality (Nilaparvata lugens) | mortality (Myzus persicae) | mortality (Aphis craccivora Koch) | effect in at least one of the two categories (mortality or growth inhibition) (Leucania separate) | effect in at least one of the two categories (mortality or growth inhibition) (Plutella xylostella) | effect in at least one of the two categories (mortality or growth inhibition) (Laphygma exigua)

CCS(=O)(=O)c1cc2nc(C(F)F)sc2nc1-c1nc2cc(C(F)(F)F)cnc2n1C [Compound I-88]
at least 90%: mortality (Aphis craccivora Koch)

CCS(=O)(=O)c1cc2nc(C)sc2nc1-c1nc2cc(C(F)(F)F)cnc2n1C [Compound I-74]
at least 90%: mortality (Aphis craccivora Koch) | effect in at least one of the two categories (mortality or growth inhibition) (Laphygma exigua)

CCS(=O)(=O)c1cc2nc(C3CC3)sc2nc1-c1nc2cc(C(F)(F)F)cnc2n1C [Compound I-73]
at least 90%: effect in at least one of the two categories (mortality or growth inhibition) (Laphygma exigua)

CCS(=O)(=O)c1cc2nc(-c3ccccc3)n(C)c2nc1-c1nc2cc(C(F)(F)F)cnc2n1C [Compound I-3]
at least 90%: mortality (Nilaparvata lugens) | mortality (Myzus persicae) | mortality (Aphis craccivora Koch) | effect in at least one of the two categories (mortality or growth inhibition) (Leucania separate) | effect in at least one of the two categories (mortality or growth inhibition) (Plutella xylostella) | effect in at least one of the two categories (mortality or growth inhibition) (Laphygma exigua)

C=Cc1nc2cc(S(=O)(=O)CC)c(-c3nc4cc(C(F)(F)F)cnc4n3C)nc2n1C [Compound I-29]
at least 90%: mortality (Nilaparvata lugens) | mortality (Myzus persicae) | mortality (Aphis craccivora Koch) | effect in at least one of the two categories (mortality or growth inhibition) (Leucania separate) | effect in at least one of the two categories (mortality or growth inhibition) (Plutella xylostella) | effect in at least one of the two categories (mortality or growth inhibition) (Laphygma exigua)
